These results are taken from publication PMC8231504, “A Biophysical Insight of Camptothecin Biodistribution: Towards a Molecular Understanding of Its Pharmacokinetic Issues” (Pharmaceutics, 2021).

Data set [1] is described as follows: Drug location in membrane by steady-state fluorescence quenching/FRET with NBD-PE probe. To be noted: NBD-PE labeled cancer membrane model.
Data set [2] can be described thus: Synchrotron SAXS and WAXS of membrane model.

In the case of `CC[C@@]1(O)C(=O)OCc2c1cc1n(c2=O)Cc2cc3ccccc3nc2-1` [CPT, Camptothecin], the “bimolecular quenching constant Kq” value in data set [1] came out at 3.53e+09 M⁻¹ s⁻¹. The “Stern-Volmer constant KSV” value in data set [1] (λexc 360 nm) amounted to 27.19 ± 1.41 M⁻¹. The “dL (SAXS) of DMPC with CPT” value in data set [2] (Lα phase, 44.8 °C, DMPC alone 62.45 ± 0.01) is 79.16 ± 3.24 Å; in data set [2] (Lβ' phase, 14 °C, DMPC alone 62.90 ± 0.68), 71.69 ± 7.00 Å. Also, the “correlation length (SAXS) of DMPC with CPT” value stood at 664.00 ± 263.68 Å in data set [2] (Lα phase, 44.8 °C, DMPC alone 1549.00 ± 275.08); 258.00 ± 42.02 Å in data set [2] (Lβ' phase, 14 °C, DMPC alone 547.00 ± 89.35); 431.00 ± 36.72 Å in data set [2] (Pβ phase, 20.6 °C, DMPC alone 855 ± 134.68). In addition, the “dL increase on addition of CPT” value in data set [2] (Lβ' phase) is 8.8 Å. The “ds (d10, WAXS) of DMPC with CPT” value in data set [2] (Lβ' phase, 14 °C) is 4.18 Å. In addition, the “ds (WAXS) of DMPC with CPT” value in data set [2] (Pβ phase, 20.6 °C) was 4.20 Å.
